Measured values from patent publication US7700636B2, “Thiadiazole compounds and methods of use” (Amgen Inc., priority 2004, dated 2010).
Some results were stated once for a whole list of compounds, not compound by compound.

By UniProt entry, the sequences of proteins in these tests, tags left out. Residues count along the entry.
UniProt P31749, 118-480 limits assumed: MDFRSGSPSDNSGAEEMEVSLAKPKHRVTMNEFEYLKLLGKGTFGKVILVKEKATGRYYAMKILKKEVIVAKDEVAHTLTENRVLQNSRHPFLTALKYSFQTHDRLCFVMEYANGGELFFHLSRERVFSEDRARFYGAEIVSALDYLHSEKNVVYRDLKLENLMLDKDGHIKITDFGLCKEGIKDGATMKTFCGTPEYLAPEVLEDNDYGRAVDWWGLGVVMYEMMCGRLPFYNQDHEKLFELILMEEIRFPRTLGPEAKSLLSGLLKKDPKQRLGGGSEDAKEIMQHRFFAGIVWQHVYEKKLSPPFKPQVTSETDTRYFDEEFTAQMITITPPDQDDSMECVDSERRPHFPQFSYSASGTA

Assays:
PKBα = target: T1, PKBα (Homo sapiens, UniProt P31749); test: PKB kinase assay (P33-labeled ATP, peptide substrate, filter plate); format: biochemical; settings: full length PKBα and PKBα kinase domain with pleckstrin domain (amino acids 1-117) deleted
T1 construct: fused on or other part: Probably a His tag on the vendor's proteins

PKB = PKB activity in cells: phosphorylation of PKB substrates FKHRL1, GSK3a/b and Tuberin by immunoassay in MDA-MB-468; format: cell-based; settings: PTEN null human breast tumor cell line MDA-MB-468; phospho-FKHRL1, GSK3a/b, Tuberin; read-out: PKB kinase activity IC50 in cells

| Structure (SMILES) | IC50 (PKBα) [µM] | IC50 (PKB) [µM] |
| --- | --- | --- |
| N[C@@H](CCc1ccccc1)CNc1nnc(-c2ccc3[nH]ncc3c2)s1 [Example 73, N-((S)-2-amino-4-phenylbutyl)-5-(1H-indazol-5-yl)-1,3,4-thiadiazol-2-amine] | < 10 | < 10 |
| Cc1n[nH]c2ccc(-c3nnc(NC[C@@H](N)CCCc4ccccc4)s3)cc12 [Example 127, N-((S)-2-amino-5-phenylpentyl)-5-(3-methyl-1H-indazol-5-yl)-1,3,4-thiadiazol-2-amine] | < 10 | < 10 |
| N[C@H](CNc1nnc(-c2cc3cn[nH]c3cc2F)s1)Cc1ccc(Br)cc1 [Example 92, N-((S)-2-amino-3-(4-bromophenyl)propyl)-5-(6-fluoro-1H-indazol-5-yl)-1,3,4-thiadiazol-2-amine] | < 10 | < 10 |
| Cc1n[nH]c2ccc(-c3nnc(NC[C@@H]4Cc5ccccc5CN4C)s3)cc12 [Example 11, (S)-[5-(3-Methyl-1H-indazol-5-yl)-[1,3,4]thiadiazol-2-yl]-(2-methyl-1,2,3,4-tetrahydro-isoquinolin-3-ylmethyl)-amine] | < 10 | < 10 |
| Cc1n[nH]c2ccc(-c3nnc(NC[C@@H](N)C(c4ccccc4)c4ccccc4)s3)cc12 [Example 41, (S)-N-[5-(3-Methyl-1H-indazol-5-yl)-[1,3,4]thiadiazol-2-yl]-3,3-diphenyl-propane-1,2-diamine] | < 10 | < 10 |
| Cc1n[nH]c2ccc(-c3nnc(NC[C@@H](N)Cc4ccccc4Br)s3)cc12 [Example 24, (S)-2-(2-Bromo-phenyl)-1-{[5-(3-methyl-1H-indazol-5-yl)-[1,3,4]thiadiazol-2-ylamino]-methyl}-ethyl-ammonium trifluoro-acetate] | < 10 | < 10 |

Results, then the molecule that gave them:

| IC50 (PKBα) [µM] | IC50 (PKB) [µM] | Structure (SMILES) |
| --- | --- | --- |
| < 10 | < 10 | CCc1n[nH]c2ccc(-c3nnc(N)s3)cc12 [Example 125, 5-(3-ethyl-1H-indazol-5-yl)-1,3,4-thiadiazol-2-amine] |
| < 10 | < 10 | CCCCCCCNC(CNc1nnc(-c2ccc3[nH]nc(C)c3c2)s1)Cc1cccc(C(F)(F)F)c1 (stereo not shown) [Example 137, N-(1-(5-(3-methyl-1H-indazol-5-yl)-1,3,4-thiadiazol-2-ylamino)-3-(3-(trifluoromethyl)phenyl)propan-2-yl)heptan-1-aminium 2,2,2-trifluoroacetate] |
| < 10 | < 10 | N[C@H](CNc1nnc(-c2ccc3[nH]ncc3c2)s1)Cc1ccc(Cl)cc1 [Example 70, N-((S)-2-amino-3-(4-chlorophenyl)propyl)-5-(1H-indazol-5-yl)-1,3,4-thiadiazol-2-amine] |
| < 10 | < 10 | N[C@H](CNc1nnc(-c2ccc3[nH]ncc3c2)s1)Cc1ccc(Cl)c(Cl)c1 [Example 81, N-((S)-2-amino-3-(3,4-dichlorophenyl)propyl)-5-(1H-indazol-5-yl)-1,3,4-thiadiazol-2-amine] |
| < 10 | < 10 | N[C@H](CNc1nnc(-c2cc3cn[nH]c3cn2)s1)Cc1ccc(C(F)(F)F)cc1 [Example 111, N-((S)-2-amino-3-(4-(trifluoromethyl)phenyl)propyl)-5-(1H-pyrazolo[3,4-c]pyridin-5-yl)-1,3,4-thiadiazol-2-amine] |
| < 10 | < 10 | Cc1cc2cc(-c3nnc(N)s3)ccc2cn1 [Example 179, 5-(3-methylisoquinolin-6-yl)-1,3,4-thiadiazol-2-amine] |
| < 10 | < 10 | C[C@@H](c1ccc(C(F)(F)F)cc1)[C@H](N)CNc1nnc(-c2ccc3[nH]ncc3c2)s1 [Example 177, N-((2S,3S)-2-amino-3-(4-(trifluoromethyl)phenyl)butyl)-5-(1H-indazol-5-yl)-1,3,4-thiadiazol-2-amine] |
| < 10 | < 10 | Cc1n[nH]c2ccc(-c3nnc(NC[C@@H](N)Cc4ccc(Cl)cc4)s3)cc12 [Example 42, (S)-3-(4-Chloro-phenyl)-N-[5-(3-methyl-1H-indazol-5-yl)-[1,3,4]thiadiazol-2-yl]-propane-1,2-diamine] |
